Laboratory results reported in paper PMC6131546.
Results are given in words; binding and its absence hold for the method and conditions named. For some of these results: In cells and extracts the contact can be indirect. Some binding calls cover weakened binding; strength is not graded here.

Sequences of proteins named here, by UniProt entry; tags and fusion partners are left off.
UniProt P60520: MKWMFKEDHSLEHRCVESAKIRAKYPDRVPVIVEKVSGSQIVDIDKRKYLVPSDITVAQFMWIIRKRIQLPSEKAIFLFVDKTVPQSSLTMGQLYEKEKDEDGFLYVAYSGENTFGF
UniProt O95166: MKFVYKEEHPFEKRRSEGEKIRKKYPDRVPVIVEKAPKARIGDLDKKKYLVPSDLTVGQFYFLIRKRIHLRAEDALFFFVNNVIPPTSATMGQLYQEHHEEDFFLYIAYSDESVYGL

How the values were obtained:
[1] = target: human GATE-16 (GABARAPL2) in pLexA (human) (UniProt P60520); assay: two-hybrid; co-transformation of pLexA bait and pB42AD prey into EGY48; induced condition (SD/-Leu-His-Trp-Ura with galactose, raffinose and X-gal), 30 °C, blue colonies; strength by the days until the colony turns blue; liquid β-galactosidase activity for some pairs
[2] = target: human GABARAP in pLexA (human) (UniProt O95166); assay: as above
[3] = target: FLAG-TBC1D9Bα from a stable HEK293 cell line (human) (UniProt Q66K14); assay: co-IP; lysates (1% NP-40 lysis buffer) of HCT116 or HEK293 cells, anti-FLAG M2 affinity gel overnight, immunoblot with anti-LC3B or anti-GFP

Substance | binding [1] | binding [2] | binding [3]
ATG8 interaction domain (AID) of TBC1D9B, amino acids 1112-1250, in pB42AD (from UniProt Q66K14-1 1112-1250) (domain or fragment) | binds | binds | –
full length TBC1D9Bα in pB42AD (from UniProt Q66K14-1 1-1250) | binds | binds | –
GFP-fused GABARAP expressed in HEK293 cells (from UniProt O95166 1-117) | – | – | binds
GFP-fused GATE-16 expressed in HEK293 cells (from UniProt P60520 1-117) | – | – | binds
GFP-fused LC3A expressed in HEK293 cells (from UniProt Q9H492 1-121) | – | – | binds
